Source: the supplement of paper PMC6078165
The reference is the same well before dosing, and untreated signal decays as well.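 Labels refer to human fibroblasts, largely primary: uterine (C12385, HUF), lung (H6013), bone (Hs27A), adrenal (HADF), skin (WS1), plus mammary HMF and breast cancer-associated Hs343T. Cancer lines are basal-like or mesenchymal-like triple-negative breast cancer. The paper counts as hits responses shifting over 3x the replicate standard deviation. The tissue of the other fibroblasts is not given here.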

System: MDAMB231
Test: relative JC-1 red fluorescence (viability) vs pre-drug, coculture with fibroblast (fraction); higher = more viable cancer cells
Experimental: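 JC-1 labelled TNBC cells cocultured 1:1 (1,500 cells each) with CellTrace Violet stained primary or stromal fibroblasts in 384-well plates in FluoroBrite medium, treated with one of 42 anticancer drugs at 0.1, 1, 10 or 100 uM. JC-1 red fluorescence (mitochondrial integrity in cancer cells only) was read by plate reader every 8 h for 72 h. Values are normalised to each well's pre-drug value. The stock of one drug was tenfold lower, so its dose labels may be too high.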

CO[C@@]12[C@H](COC(N)=O)C3=C(C(=O)C(C)=C(N)C3=O)N1C[C@@H]1N[C@@H]12 [Mitomycin C]
relative JC-1 red fluorescence
Conditions	8 h	16 h	24 h	32 h	40 h	48 h	56 h	64 h	72 h
0.1 µM, coculture fibroblast: C12385	0.748	0.726	0.603	0.584	0.523	0.49	0.436	0.423	0.395
0.1 µM, coculture fibroblast: H6013	0.901	0.841	0.7991	0.766	0.715	0.67	0.652	0.613	0.56
0.1 µM, coculture fibroblast: H6019	0.742	0.662	0.575	0.541	0.464	0.425	0.36	0.314	0.266
0.1 µM, coculture fibroblast: H6076	0.911	0.7975	0.7226	0.681	0.619	0.578	0.528	0.498	0.469
0.1 µM, coculture fibroblast: H6231	0.914	0.8107	0.72	0.6551	0.59356	0.558	0.515	0.492	0.465
0.1 µM, coculture fibroblast: HADF	0.882	0.841	0.7779	0.7292	0.686	0.627	0.607	0.58	0.543
0.1 µM, coculture fibroblast: HCFa	0.894	0.831	0.793	0.763	0.722	0.672	0.661	0.631	0.581
0.1 µM, coculture fibroblast: HCPF	0.9121	0.806	0.6986	0.6649	0.5976	0.551	0.498	0.46	0.43
0.1 µM, coculture fibroblast: HHSteC	0.9072	0.833	0.779	0.731	0.663	0.627	0.583	0.557	0.497
0.1 µM, coculture fibroblast: HMF	0.895	0.832	0.788	0.764	0.741	0.709	0.68	0.665	0.652
0.1 µM, coculture fibroblast: HPFa	0.945	0.8773	0.813	0.761	0.727	0.676	0.616	0.571	0.516
0.1 µM, coculture fibroblast: HUF	0.823	0.689	0.7073	0.57956	0.518	0.49647	0.44	0.431	0.412
0.1 µM, coculture fibroblast: Hs5	0.929	0.823	0.741	0.692	0.643	0.586	0.549	0.52	0.4986
0.1 µM, coculture fibroblast: Hs27A	0.8754	0.803	0.7454	0.715	0.666	0.593	0.612	0.592	0.554
0.1 µM, coculture fibroblast: Hs343T	0.8916	0.804	0.721	0.687	0.626	0.571	0.515	0.479	0.451
0.1 µM, coculture fibroblast: WS1	0.7369	0.674	0.53295	0.5132	0.456	0.417	0.362	0.341	0.309
1 µM, coculture fibroblast: C12385	0.7335	0.695	0.641	0.604	0.53	0.52	0.493	0.492	0.474
1 µM, coculture fibroblast: H6013	0.873	0.807	0.762	0.728	0.662	0.629	0.588	0.554	0.511
1 µM, coculture fibroblast: H6019	0.748	0.687	0.626	0.561	0.488	0.46	0.398	0.355	0.314
1 µM, coculture fibroblast: H6076	0.917	0.826	0.76	0.724	0.666	0.617	0.577	0.534	0.504
1 µM, coculture fibroblast: H6231	0.915	0.782	0.7075	0.659	0.588	0.549	0.501	0.48	0.451
1 µM, coculture fibroblast: HADF	0.846	0.801	0.761	0.728	0.69919	0.673	0.6479	0.6273	0.579
1 µM, coculture fibroblast: HCFa	0.85219	0.8023	0.76	0.725	0.675	0.624	0.583	0.537	0.489
1 µM, coculture fibroblast: HCPF	0.894	0.765	0.702	0.668	0.601	0.561	0.516	0.4867	0.4644
1 µM, coculture fibroblast: HHSteC	0.8691	0.831	0.79	0.744	0.7	0.664	0.619	0.586	0.537
1 µM, coculture fibroblast: HMF	0.874	0.75	0.7	0.6618	0.6208	0.584	0.563	0.539	0.511
1 µM, coculture fibroblast: HPFa	0.956	0.92	0.89	0.841	0.833	0.798	0.742	0.709	0.661
1 µM, coculture fibroblast: HUF	0.825	0.702	0.7	0.586	0.517	0.495	0.451	0.44	0.4265
1 µM, coculture fibroblast: Hs5	0.892	0.768	0.689	0.625	0.569	0.508	0.478	0.451	0.426
1 µM, coculture fibroblast: Hs27A	0.8707	0.815	0.766	0.745	0.698	0.6472	0.6514	0.632	0.582
1 µM, coculture fibroblast: Hs343T	0.8847	0.735	0.665	0.608	0.558	0.505	0.462	0.438	0.408
1 µM, coculture fibroblast: WS1	0.7157	0.649	0.584	0.526	0.49	0.465	0.427	0.418	0.4
